This test deals with Focal adhesion kinase 1 (human (endogenous in HCT-116)) (UniProt Q05397). The test is described as follows: affinity purification with mass spectrometry; anti-FAK polyclonal antibody and Protein A/G agarose on 1.5 mg HCT-116 total cell lysate, cells untreated (regular IP) or stimulated with 10 ng/ml EGF for 30 min; rabbit IgG as control; 1D SDS-PAGE, in-gel trypsin digestion, nano-LC-MS/MS; the proteins of Table 2 were found only with EGF ….

Sequences of proteins named here, by UniProt entry; tags and fusion partners are left off.
UniProt Q05397: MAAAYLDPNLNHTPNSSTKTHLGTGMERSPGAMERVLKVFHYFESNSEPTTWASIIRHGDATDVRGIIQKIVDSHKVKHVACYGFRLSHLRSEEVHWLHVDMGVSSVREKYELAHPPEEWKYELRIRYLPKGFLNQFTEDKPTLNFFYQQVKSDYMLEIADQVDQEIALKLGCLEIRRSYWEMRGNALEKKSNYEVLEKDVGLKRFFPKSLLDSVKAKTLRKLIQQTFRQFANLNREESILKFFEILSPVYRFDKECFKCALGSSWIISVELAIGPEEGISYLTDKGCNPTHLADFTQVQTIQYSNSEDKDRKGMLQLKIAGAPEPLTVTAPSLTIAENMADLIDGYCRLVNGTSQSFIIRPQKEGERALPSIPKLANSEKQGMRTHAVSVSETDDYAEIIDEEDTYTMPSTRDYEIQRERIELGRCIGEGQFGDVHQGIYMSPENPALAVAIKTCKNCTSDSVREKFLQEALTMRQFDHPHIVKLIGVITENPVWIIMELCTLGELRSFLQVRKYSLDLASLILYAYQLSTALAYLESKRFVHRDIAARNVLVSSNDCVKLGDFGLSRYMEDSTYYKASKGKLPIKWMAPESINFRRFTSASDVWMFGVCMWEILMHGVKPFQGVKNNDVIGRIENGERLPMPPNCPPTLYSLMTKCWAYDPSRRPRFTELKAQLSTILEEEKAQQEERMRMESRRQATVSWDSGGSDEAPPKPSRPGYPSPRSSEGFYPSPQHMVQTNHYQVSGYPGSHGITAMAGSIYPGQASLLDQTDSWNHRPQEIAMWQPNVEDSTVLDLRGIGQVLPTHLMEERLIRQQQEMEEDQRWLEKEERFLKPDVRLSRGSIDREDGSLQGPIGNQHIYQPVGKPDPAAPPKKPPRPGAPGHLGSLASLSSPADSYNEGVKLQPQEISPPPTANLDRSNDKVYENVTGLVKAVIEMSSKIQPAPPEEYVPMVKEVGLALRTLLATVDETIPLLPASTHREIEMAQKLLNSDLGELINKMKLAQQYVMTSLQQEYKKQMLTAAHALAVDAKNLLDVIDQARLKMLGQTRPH

No constants are given. Whether binding was seen depends on the method and setting. In cells and extracts the contact can be indirect. A yes stands for co-enrichment or nearness to the bait. Other partners may have been found.

B1: splicing factor, proline- and glutamine-rich (protein, UniProt P23246-1 1-707)
chain: MSRDRFRSRGGGGGGFHRRGGGGGRGGLHDFRSPPPGMGLNQNRGPMGPGPGQSGPKPPIPPPPPHQQQQQPPPQQPPPQQPPPHQPPPHPQPHQQQQPPPPPQDSSKPVVAQGPGPAPGVGSAPPASSSAPPATPPTSGAPPGSGPGPTPTPPPAVTSAPPGAPPPTPPSSGVPTTPPQAGGPPPPPAAVPGPGPGPKQGPGPGGPKGGKMPGGPKPGGGPGLSTPGGHPKPPHRGGGEPRGGRQHHPPYHQQHHQGPPPGGPGGRSEEKISDSEGFKANLSLLRRPGEKTYTQRCRLFVGNLPADITEDEFKRLFAKYGEPGEVFINKGKGFGFIKLESRALAEIAKAELDDTPMRGRQLRVRFATHAAALSVRNLSPYVSNELLEEAFSQFGPIERAVVIVDDRGRSTGKGIVEFASKPAARKAFERCSEGVFLLTTTPRPVIVEPLEQLDDEDGLPEKLAQKNPMYQKERETPPRFAQHGTFEYEYSQRWKSLDEMEKQQREQVEKNMKDAKDKLESEMEDAYHEHQANLLRQDLMRRQEELRRMEELHNQEMQKRKEMQLRQEEERRRREEEMMIRQREMEEQMRRQREESYSRMGYMDPRERDMRMGGGGAMNMGDPYGSGGQKFPPLGGGGGIGYEANPGVPPATMSGSMMGSDMRTERFGQGGAGPVGGQGPRGMGPGTPAGYGRGREEYEGPNKKPRF
Regarding B1, the binding result is “binds”.

B2: Coiled-coil domain-containing protein 86 (protein, UniProt Q9H6F5 1-360)
chain: MDTPLRRSRRLGGLRPESPESLTSVSRTRRALVEFESNPEETREPGSPPSVQRAGLGSPERPPKTSPGSPRLQQGAGLESPQGQPEPGAASPQRQQDLHLESPQRQPEYSPESPRCQPKPSEEAPKCSQDQGVLASELAQNKEELTPGAPQHQLPPVPGSPEPYPGQQAPGPEPSQPLLELTPRAPGSPRGQHEPSKPPPAGETVTGGFGAKKRKGSSSQAPASKKLNKEELPVIPKGKPKSGRVWKDRSKKRFSQMLQDKPLRTSWQRKMKERQERKLAKDFARHLEEEKERRRQEKKQRRAENLKRRLENERKAEVVQVIRNPAKLKRAKKKQLRSIEKRDTLALLQKQPPQQPAAKI
In the case of B2, the binding result is given as “binds”.

B3: Caprin-1 (protein, UniProt Q14444-1 1-709)
chain: MPSATSHSGSGSKSSGPPPPSGSSGSEAAAGAGAAAPASQHPATGTGAVQTEAMKQILGVIDKKLRNLEKKKGKLDDYQERMNKGERLNQDQLDAVSKYQEVTNNLEFAKELQRSFMALSQDIQKTIKKTARREQLMREEAEQKRLKTVLELQYVLDKLGDDEVRTDLKQGLNGVPILSEEELSLLDEFYKLVDPERDMSLRLNEQYEHASIHLWDLLEGKEKPVCGTTYKVLKEIVERVFQSNYFDSTHNHQNGLCEEEEAASAPAVEDQVPEAEPEPAEEYTEQSEVESTEYVNRQFMAETQFTSGEKEQVDEWTVETVEVVNSLQQQPQAASPSVPEPHSLTPVAQADPLVRRQRVQDLMAQMQGPYNFIQDSMLDFENQTLDPAIVSAQPMNPTQNMDMPQLVCPPVHSESRLAQPNQVPVQPEATQVPLVSSTSEGYTASQPLYQPSHATEQRPQKEPIDQIQATISLNTDQTTASSSLPAASQPQVFQAGTSKPLHSSGINVNAAPFQSMQTVFNMNAPVPPVNEPETLKQQNQYQASYNQSFSSQPHQVEQTELQQEQLQTVVGTYHGSPDQSHQVTGNHQQPPQQNTGFPRSNQPYYNSRGVSRGGSRGARGLMNGYRGPANGFRGGYDGYRPSFSNTPNSGYTQSQFSAPRDYSGYQRDGYQQNFKRGSGQSGPRGAPRGRGGPPRPNRGMPQMNTQQVN
For B3, the binding result is on record as “binds”.

B4: Transducin beta-like protein 2 (protein, UniProt Q9Y4P3 1-447)
chain: MELSQMSELMGLSVLLGLLALMATAAVARGWLRAGEERSGRPACQKANGFPPDKSSGSKKQKQYQRIRKEKPQQHNFTHRLLAAALKSHSGNISCMDFSSNGKYLATCADDRTIRIWSTKDFLQREHRSMRANVELDHATLVRFSPDCRAFIVWLANGDTLRVFKMTKREDGGYTFTATPEDFPKKHKAPVIDIGIANTGKFIMTASSDTTVLIWSLKGQVLSTINTNQMNNTHAAVSPCGRFVASCGFTPDVKVWEVCFGKKGEFQEVVRAFELKGHSAAVHSFAFSNDSRRMASVSKDGTWKLWDTDVEYKKKQDPYLLKTGRFEEAAGAAPCRLALSPNAQVLALASGSSIHLYNTRRGEKEECFERVHGECIANLSFDITGRFLASCGDRAVRLFHNTPGHRAMVEEMQGHLKRASNESTRQRLQQQLTQAQETLKSLGALKK
As to B4, the binding entry is listed as “binds”.

B5: Guanine nucleotide-binding protein-like 3 (protein, UniProt Q9BVP2 1-549)
chain: MKRPKLKKASKRMTCHKRYKIQKKVREHHRKLRKEAKKRGHKKPRKDPGVPNSAPFKEALLREAELRKQRLEELKQQQKLDRQKELEKKRKLETNPDIKPSNVEPMEKEFGLCKTENKAKSGKQNSKKLYCQELKKVIEASDVVLEVLDARDPLGCRCPQVEEAIVQSGQKKLVLILNKSDLVPKENLESWLNYLKKELPTVVFRASTKPKDKGKITKRVKAKKNAAPFRSEVCFGKEGLWKLLGGFQETCSKAIRVGVIGFPNVGKSSIINSLKQEQMCNVGVSMGLTRSMQVVPLDKQITIIDSPSFIVSPLNSSSALALRSPASIEVVKPMEAASAILSQADARQVVLKYTVPGYRNSLEFFTVLAQRRGMHQKGGIPNVEGAAKLLWSEWTGASLAYYCHPPTSWTPPPYFNESIVVDMKSGFNLEELEKNNAQSIRAIKGPHLANSILFQSSGLTNGIIEEKDIHEELPKRKERKQEEREDDKDSDQETVDEEVDENSSGMFAAEETGEALSEETTAGEQSTRSFILDKIIEEDDAYDFSTDYV
For the molecule B5, the binding result was “binds”.

B6: arginine–tRNA ligase, cytoplasmic (protein, UniProt P54136-1 1-660)
chain: MDVLVSECSARLLQQEEEIKSLTAEIDRLKNCGCLGASPNLEQLQEENLKLKYRLNILRKSLQAERNKPTKNMINIISRLQEVFGHAIKAAYPDLENPPLLVTPSQQAKFGDYQCNSAMGISQMLKTKEQKVNPREIAENITKHLPDNECIEKVEIAGPGFINVHLRKDFVSEQLTSLLVNGVQLPALGENKKVIVDFSSPNIAKEMHVGHLRSTIIGESISRLFEFAGYDVLRLNHVGDWGTQFGMLIAHLQDKFPDYLTVSPPIGDLQVFYKESKKRFDTEEEFKKRAYQCVVLLQGKNPDITKAWKLICDVSRQELNKIYDALDVSLIERGESFYQDRMNDIVKEFEDRGFVQVDDGRKIVFVPGCSIPLTIVKSDGGYTYDTSDLAAIKQRLFEEKADMIIYVVDNGQSVHFQTIFAAAQMIGWYDPKVTRVFHAGFGVVLGEDKKKFKTRSGETVRLMDLLGEGLKRSMDKLKEKERDKVLTAEELNAAQTSVAYGCIKYADLSHNRLNDYIFSFDKMLDDRGNTAAYLLYAFTRIRSIARLANIDEEMLQKAARETKILLDHEKEWKLGRCILRFPEILQKILDDLFLHTLCDYIYELATAFTEFYDSCYCVEKDRQTGKILKVNMWRMLLCEAVAAVMAKGFDILGIKPVQRM
With B6, the binding result is recorded as “binds”.

B7: Aspartyl/Asparaginyl beta-hydroxylase (protein, UniProt Q12797 1-758)
chain: MAQRKNAKSSGNSSSSGSGSGSTSAGSSSPGARRETKHGGHKNGRKGGLSGTSFFTWFMVIALLGVWTSVAVVWFDLVDYEEVLGKLGIYDADGDGDFDVDDAKVLLGLKERSTSEPAVPPEEAEPHTEPEEQVPVEAEPQNIEDEAKEQIQSLLHEMVHAEHVEGEDLQQEDGPTGEPQQEDDEFLMATDVDDRFETLEPEVSHEETEHSYHVEETVSQDCNQDMEEMMSEQENPDSSEPVVEDERLHHDTDDVTYQVYEEQAVYEPLENEGIEITEVTAPPEDNPVEDSQVIVEEVSIFPVEEQQEVPPETNRKTDDPEQKAKVKKKKPKLLNKFDKTIKAELDAAEKLRKRGKIEEAVNAFKELVRKYPQSPRARYGKAQCEDDLAEKRRSNEVLRGAIETYQEVASLPDVPADLLKLSLKRRSDRQQFLGHMRGSLLTLQRLVQLFPNDTSLKNDLGVGYLLIGDNDNAKKVYEEVLSVTPNDGFAKVHYGFILKAQNKIAESIPYLKEGIESGDPGTDDGRFYFHLGDAMQRVGNKEAYKWYELGHKRGHFASVWQRSLYNVNGLKAQPWWTPKETGYTELVKSLERNWKLIRDEGLAVMDKAKGLFLPEDENLREKGDWSQFTLWQQGRRNENACKGAPKTCTLLEKFPETTGCRRGQIKYSIMHPGTHVWPHTGPTNCRLRMHLGLVIPKEGCKIRCANETKTWEEGKVLIFDDSFEHEVWQDASSFRLIFIVDVWHPELTPQQRRSLPAI
For B7, the binding entry is reported as “binds”.

B8: Transcription factor 25 (protein, UniProt Q9BQ70 1-676)
chain: MSRRALRRLRGEQRGQEPLGPGALHFDLRDDDDAEEEGPKRELGVRRPGGAGKEGVRVNNRFELINIDDLEDDPVVNGERSGCALTDAVAPGNKGRGQRGNTESKTDGDDTETVPSEQSHASGKLRKKKKKQKNKKSSTGEASENGLEDIDRILERIEDSTGLNRPGPAPLSSRKHVLYVEHRHLNPDTELKRYFGARAILGEQRPRQRQRVYPKCTWLTTPKSTWPRYSKPGLSMRLLESKKGLSFFAFEHSEEYQQAQHKFLVAVESMEPNNIVVLLQTSPYHVDSLLQLSDACRFQEDQEMARDLVERALYSMECAFHPLFSLTSGACRLDYRRPENRSFYLALYKQMSFLEKRGCPRTALEYCKLILSLEPDEDPLCMLLLIDHLALRARNYEYLIRLFQEWEAHRNLSQLPNFAFSVPLAYFLLSQQTDLPECEQSSARQKASLLIQQALTMFPGVLLPLLESCSVRPDASVSSHRFFGPNAEISQPPALSQLVNLYLGRSHFLWKEPATMSWLEENVHEVLQAVDAGDPAVEACENRRKVLYQRAPRNIHRHVILSEIKEAVAALPPDVTTQSVMGFDPLPPSDTIYSYVRPERLSPISHGNTIALFFRSLLPNYTMEGERPEEGVAGGLNRNQGLNRLMLAVRDMMANFHLNDLEAPHEDDAEGEGEWD
Turning to B8, the binding entry was “binds”.

B9: Lamin-B2 (protein, UniProt Q03252 1-620)
chain: MSPPSPGRRREQRRPRAAATMATPLPGRAGGPATPLSPTRLSRLQEKEELRELNDRLAHYIDRVRALELENDRLLLKISEKEEVTTREVSGIKALYESELADARRVLDETARERARLQIEIGKLRAELDEVNKSAKKREGELTVAQGRVKDLESLFHRSEVELAAALSDKRGLESDVAELRAQLAKAEDGHAVAKKQLEKETLMRVDLENRCQSLQEELDFRKSVFEEEVRETRRRHERRLVEVDSSRQQEYDFKMAQALEELRSQHDEQVRLYKLELEQTYQAKLDSAKLSSDQNDKAASAAREELKEARMRLESLSYQLSGLQKQASAAEDRIRELEEAMAGERDKFRKMLDAKEQEMTEMRDVMQQQLAEYQELLDVKLALDMEINAYRKLLEGEEERLKLSPSPSSRVTVSRATSSSSGSLSATGRLGRSKRKRLEVEEPLGSGPSVLGTGTGGSGGFHLAQQASASGSVSIEEIDLEGKFVQLKNNSDKDQSLGNWRIKRQVLEGEEIAYKFTPKYILRAGQMVTVWAAGAGVAHSPPSTLVWKGQSSWGTGESFRTVLVNADGEEVAMRTVKKSSVMRENENGEEEEEEAEFGEEDLFHQQGDPRTTSRGCYVM
For B9, the binding result is “binds”.

B10: rRNA 2’-O-methyltransferase fibrillarin (protein, UniProt P22087 1-321)
chain: MKPGFSPRGGGFGGRGGFGDRGGRGGRGGFGGGRGRGGGFRGRGRGGGGGGGGGGGGGRGGGGFHSGGNRGRGRGGKRGNQSGKNVMVEPHRHEGVFICRGKEDALVTKNLVPGESVYGEKRVSISEGDDKIEYRAWNPFRSKLAAAILGGVDQIHIKPGAKVLYLGAASGTTVSHVSDIVGPDGLVYAVEFSHRSGRDLINLAKKRTNIIPVIEDARHPHKYRMLIAMVDVIFADVAQPDQTRIVALNAHTFLRNGGHFVISIKANCIDSTASAEAVFASEVKKMQQENMKPQEQLTLEPYERDHAVVVGVYRPPPKVKN
Take B10: the binding result is given as “binds”.

The record behind these values is article PMC6733923.
